Values of other authors in US20070293539A1, “Methods for the treatment of synucleinopathies” (priority 2004, published 2007).
For at least one compound, name, drawing or mass did not settle the structure.

Details: combination with carbodopa and levodopa; cited from earlier work

CCN(CC)C(=O)/C(C#N)=C/c1cc(O)c(O)c([N+](=O)[O-])c1 [entacapone]
extension of the time levodopa is active in the brain: up to 10%
